According to article PMC12356834:
These are yes or no findings as the source states them, for the method shown. In cells and extracts the contact can be indirect. Some binding calls cover weakened binding; strength is not graded here. Where a sequence is shown, tags or fusion partners need not be part of it.

By UniProt entry, the sequences of proteins in these tests, tags left out. Residues count along the entry.
UniProt P11021, residues 19-654: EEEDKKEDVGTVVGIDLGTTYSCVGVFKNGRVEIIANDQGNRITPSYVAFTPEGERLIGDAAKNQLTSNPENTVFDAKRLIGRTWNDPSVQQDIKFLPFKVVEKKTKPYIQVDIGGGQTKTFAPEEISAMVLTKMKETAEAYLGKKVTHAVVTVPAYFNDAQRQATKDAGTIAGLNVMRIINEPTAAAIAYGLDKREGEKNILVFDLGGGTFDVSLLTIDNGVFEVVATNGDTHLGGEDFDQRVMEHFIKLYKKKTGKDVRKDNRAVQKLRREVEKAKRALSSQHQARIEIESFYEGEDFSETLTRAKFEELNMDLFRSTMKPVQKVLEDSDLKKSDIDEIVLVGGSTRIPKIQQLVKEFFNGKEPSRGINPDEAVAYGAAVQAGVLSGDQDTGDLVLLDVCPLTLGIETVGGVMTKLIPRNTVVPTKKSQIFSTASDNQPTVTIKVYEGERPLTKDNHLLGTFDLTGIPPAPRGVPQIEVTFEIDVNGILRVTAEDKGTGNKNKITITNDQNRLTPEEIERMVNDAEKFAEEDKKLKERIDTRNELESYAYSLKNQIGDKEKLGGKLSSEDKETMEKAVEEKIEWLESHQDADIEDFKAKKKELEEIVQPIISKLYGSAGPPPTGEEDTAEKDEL

Molecular target: T1, FLAG-tagged UBOX5 (human) (UniProt O94941)
T1 sequence: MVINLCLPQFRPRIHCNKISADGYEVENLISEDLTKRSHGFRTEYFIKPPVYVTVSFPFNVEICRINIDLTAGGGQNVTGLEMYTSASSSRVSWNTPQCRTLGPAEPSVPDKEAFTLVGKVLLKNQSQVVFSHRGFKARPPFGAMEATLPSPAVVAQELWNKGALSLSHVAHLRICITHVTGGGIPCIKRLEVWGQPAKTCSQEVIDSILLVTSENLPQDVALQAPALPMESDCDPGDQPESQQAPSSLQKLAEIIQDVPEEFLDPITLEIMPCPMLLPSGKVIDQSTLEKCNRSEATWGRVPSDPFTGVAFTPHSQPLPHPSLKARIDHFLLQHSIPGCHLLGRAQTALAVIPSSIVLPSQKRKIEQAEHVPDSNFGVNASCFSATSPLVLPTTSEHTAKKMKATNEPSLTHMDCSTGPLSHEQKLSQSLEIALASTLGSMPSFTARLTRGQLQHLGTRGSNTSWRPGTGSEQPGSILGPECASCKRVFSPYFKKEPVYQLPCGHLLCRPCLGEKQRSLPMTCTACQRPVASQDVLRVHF
Assay: co-IP; HEK293 cells co-transfected with FLAG-tagged UBOX5-UBD or FLAG-tagged UBOX5 and HA-tagged ubiquitin; thapsigargin, then MG132 before harvest; lysates immunoprecipitated with anti-FLAG M2 and Protein G beads; immunoblot for BIP; mock immunoprecipitation with mouse immunoglobulin as control

With “Binding Immunoglobulin Protein (BIP) (from UniProt P11021 19-654)” the binding was “binds”.
